# According to PubChem BioAssay AID328 (DTP/NCI, 2004):
# The list does not hold the whole screen: it gathers tests that were run many times, whatever their T/C, doses with no T/C, and many T/C values between a quarter and a half above the control. Further doses and runs are listed elsewhere. T/C is the treated group as % of the vehicle group. Some doses have a count of surviving animals in place of a T/C: the source files T/C as zero there, which appears to mark a toxic dose or a test without result, not a measured value. Some doses without a T/C left all or most animals alive at the check, yet need not have been tolerated: survival well below the control is almost never listed, so the zero probably covers shortened survival too. Survivors were counted at the toxicity check, usually on the fifth day, unless a day is given; later deaths do not show. Schedule codes are those of the source, read here as Q, the interval in days (D) or hours (H), X, the number of doses. Some entries were tested several times; their values stand side by side, smallest first. Some molecules as drawn cover several salts, stereoisomers or complexes of the source; a dose is that of the sample tested. Where survival is the endpoint, the PubChem record calls one and a half times the control and up active, and a quarter to a half above the control has no call in these data; cut-offs in other NCI protocols can differ. Some T/C values are followed by the survivors on the day toxicity was checked, most often the fifth; where none is given, no animal had died by that day. Residues, ends and D or L forms follow the SMILES beside them. *: point of attachment. Bn = c1ccc(C*)cc1; For = O=C*
# Tested on: BDF1 mice, P388 leukemia ip, median survival T/C
# Assay: NCI In Vivo Anticancer Drug Screen. Data for tumor model P388 Leukemia (intraperitoneal) in B6D2F1 (BDF1) mice
# Details: T/C endpoint: median survival time, higher T/C = longer survival
# In short: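 Survival ratio, drug arm over vehicle arm, in mice with a transplanted tumour.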
# [1] = dose: 400.0 mg/kg/injection, schedule: Q04DX003 (ip), vehicle: saline
# [2] = dose: 200.0 mg/kg/injection, schedule: Q01DX009 (ip), vehicle: saline with Tween-80
# [3] = dose: 400.0 mg/kg/injection, schedule: Q01DX009 (ip), vehicle: saline with Tween-80
# [4] = dose: 100.0 mg/kg/injection, schedule: Q01DX009 (ip), vehicle: saline
# [5] = dose: 200.0 mg/kg/injection, schedule: Q01DX009 (ip), vehicle: saline
# [6] = dose: 400.0 mg/kg/injection, schedule: Q01DX009 (ip), vehicle: saline
# [7] = dose: 50.0 mg/kg/injection, schedule: Q01DX009 (ip), vehicle: Klucel (hydroxypropylcellulose) (HPC)
smiles,measurement,setting,value
CCCCCCCCOP(=O)(N1CC1C)N1CC1C (stereo not drawn),survivor count,"dose: 200.0 mg/kg/injection, schedule: Q04DX003 (ip), vehicle: saline",4 of 6
same,survivor count,[1],0 of 6
CC(=O)OCC(=O)[C@@]1(O)CC[C@H]2[C@@H]3C[C@H](F)C4=CC(=O)CC[C@]4(C)[C@H]3[C@@H](O)C[C@@]21C,survivor count,"dose: 100.0 mg/kg/injection, schedule: Q01DX009 (ip), vehicle: saline with Tween-80",5 of 6
same,survivor count,[2],5 of 6
same,survivor count,[3],3 of 6
CC(C)CC(NC(=O)C(Cc1ccc(OCc2ccccc2)cc1)NC=O)C(=O)O (stereo not drawn) (For-Tyr(Bn)-Leu-OH; configuration not given here),T/C,[3],140 % of control
same,survivor count,"dose: 400.0 mg/kg/injection, schedule: Q01DX009 (ip), vehicle: sodium bicarbonate",2 of 6
same,survivor count,"dose: 450.0 mg/kg/injection, schedule: Q01DX009 (ip), vehicle: saline with Tween-80",4 of 6
same,survivor count,"dose: 450.0 mg/kg/injection, schedule: Q01DX009 (ip), vehicle: sodium bicarbonate",1 of 6
CN(C)c1ccc(N=Nc2ccc([As](=O)(O)O)cc2)cc1,survivor count,"dose: 5.0 mg/kg/injection, schedule: Q04DX003 (ip), vehicle: saline with Tween-80",5 of 6
same,survivor count,"dose: 10.0 mg/kg/injection, schedule: Q04DX003 (ip), vehicle: saline with Tween-80",5 of 6
same,survivor count,"dose: 20.0 mg/kg/injection, schedule: Q04DX003 (ip), vehicle: saline with Tween-80",4 of 6
CC(C)(O)/C=C/C(=O)C(C)(O)C1C(O)CC2(C)C3CC=C4C(CC(O)C(O)C4(C)C)C3(C)C(=O)CC12C (stereo not drawn),survivor count,"dose: 4.0 mg/kg/injection, schedule: Q01DX010 (ip), vehicle: carboxymethylcellulose (CMC)",0 of 6
same,survivor count,"dose: 8.0 mg/kg/injection, schedule: Q01DX010 (ip), vehicle: carboxymethylcellulose (CMC)",0 of 6
NC(=O)NN=C1CSSC1,survivor count,"dose: 25.0 mg/kg/injection, schedule: Q01DX009 (ip), vehicle: saline with Tween-80",0 of 6
CC(C)(O)/C=C/C(=O)[C@](C)(O)[C@H]1[C@H](O)C[C@@]2(C)[C@@H]3CC=C4[C@@H](C=C(O)C(=O)C4(C)C)[C@]3(C)C(=O)C[C@]12C,survivor count,"dose: 12.5 mg/kg/injection, schedule: Q01DX009 (ip), vehicle: Klucel (hydroxypropylcellulose) (HPC)",30 of 30
O=C(O)c1occ(Cl)c1Cl,survivor count,"dose: 400.0 mg/kg/injection, schedule: Q04DX003 (ip), vehicle: water",3 of 6
O=COC1CC2CC1C1CCCC21 (stereo not drawn),survivor count,[2],4 of 6
CC1(C)N=C(N)N=C(N)N1c1cccc(OCCOc2ccc(NC(=O)CBr)cc2)c1,survivor count,"dose: 200.0 mg/kg/injection, schedule: Q01DX009 (ip), vehicle: saline sonified",1 of 6
N=C(N)Sc1cc(O)ccc1O,T/C,"dose: 37.5 mg/kg/injection, schedule: Q01DX009 (ip), vehicle: saline",148 % of control
same,T/C,"dose: 75.0 mg/kg/injection, schedule: Q01DX009 (ip), vehicle: saline",129 % of control
same,T/C,[4],136 % of control
same,T/C,"dose: 150.0 mg/kg/injection, schedule: Q01DX009 (ip), vehicle: saline",132 and 140 % of control
same,T/C,[5],131 % of control
same,T/C,"dose: 300.0 mg/kg/injection, schedule: Q01DX009 (ip), vehicle: saline",138 % of control [5 of 6 alive]
CCOC(=O)C1CC(=O)c2ccccc2C1 (stereo not drawn),survivor count,"dose: 25.0 mg/kg/injection, schedule: Q01DX009 (ip), vehicle: other",6 of 6
same,survivor count,"dose: 50.0 mg/kg/injection, schedule: Q01DX009 (ip), vehicle: other",6 of 6
O=C(O)CCC(=O)O,T/C,"dose: 40.0 mg/kg/injection, schedule: Q01DX009 (ip), vehicle: saline",144 % of control
same,T/C,[4],128 % of control
same,survivor count,"dose: 200.0 mg/kg/injection, schedule: Q01DX009 (ip), vehicle: other",4 of 6
same,survivor count,"dose: 400.0 mg/kg/injection, schedule: Q01DX009 (ip), vehicle: other",0 of 6 and 3 of 6
same,survivor count,[6],0 of 6 and 4 of 6
C[CH2][Ge]1([CH2]C)[CH2]CC2(CCN(CCCN(C)C)C2)C[CH2]1,survivor count,"dose: 40.0 mg/kg/injection, schedule: Q01DX009 (ip), vehicle: saline with Tween-80",3 of 3
same,survivor count,"dose: 80.0 mg/kg/injection, schedule: Q01DX009 (ip), vehicle: saline with Tween-80",3 of 3
same,survivor count,[4],2 of 3 and 6 of 6
same,survivor count,[5],0 of 3 and 0 of 6
same,survivor count,[6],0 of 6
Cc1ccc(C)c2c1CCC2C (stereo not drawn),survivor count,[3],2 of 6
Cc1ccc(C(=Nc2ccccc2)c2ccccc2C)cc1,survivor count,"dose: 50.0 mg/kg/injection, schedule: Q04DX002 (ip), vehicle: saline with Tween-80",5 of 5
same,survivor count,"dose: 200.0 mg/kg/injection, schedule: Q04DX002 (ip), vehicle: saline with Tween-80",6 of 6
same,survivor count,"dose: 400.0 mg/kg/injection, schedule: Q04DX002 (ip), vehicle: saline with Tween-80",6 of 6
NNc1nncn2c1cc1ccccc12,survivor count,[2],2 of 6
CC1(c2cccs2)C(=O)NC(=O)N1C(=O)CCl (stereo not drawn),survivor count,[2],2 of 6
same,survivor count,"dose: 400.0 mg/kg/injection, schedule: Q04DX003 (ip), vehicle: saline with Tween-80",1 of 6
O=C(O)C1(C(=O)O)CC2CC=CCC2C1 (stereo not drawn),survivor count,[1],1 of 6
N#CC(C#N)=Cc1cccc([N+](=O)[O-])c1,survivor count,"dose: 25.0 mg/kg/injection, schedule: Q04DX003 (ip), vehicle: Klucel (hydroxypropylcellulose) (HPC)",6 of 6
same,T/C,[7],125 % of control [5 of 6 alive]
same,survivor count,[7],5 of 6
same,T/C,"dose: 100.0 mg/kg/injection, schedule: Q01DX009 (ip), vehicle: Klucel (hydroxypropylcellulose) (HPC)",145 % of control [5 of 6 alive]
COc1cccc(S(=O)c2ccc([N+](=O)[O-])c3no[n+]([O-])c23)c1 (stereo not drawn),survivor count,"dose: 30.0 mg/kg/injection, schedule: Q01DX009 (ip), vehicle: saline with Tween-80",4 of 7
same,survivor count,"dose: 60.0 mg/kg/injection, schedule: Q01DX009 (ip), vehicle: saline with Tween-80",1 of 7
N/C(=N\O)c1cccnc1,survivor count,"dose: 300.0 mg/kg/injection, schedule: Q04DX003 (ip), vehicle: water",5 of 6
C[C@]12C=CC(=O)C=C1CC[C@@H]1[C@@H]2[C@@H](O)C[C@@]2(C)[C@H]1CC[C@]2(O)C(=O)COC(=O)CCC1CCCC1,survivor count,[2],6 of 6
same,survivor count,[3],5 of 6
COc1cc(NCCCCCCNCC(C)C)c2nccc(C)c2c1,survivor count,"dose: 50.0 mg/kg/injection, schedule: Q01DX009 (ip), vehicle: saline",5 of 6
same,survivor count,[4],0 of 6
same,survivor count,[5],0 of 6
CN(C)[C@@H]1C(=O)C(C(N)=O)=C(O)[C@]2(O)C(=O)C3C(=O)c4c(O)ccc(Cl)c4[C@](C)(O)[C@H]3C[C@@H]12 (stereo partly drawn),T/C,"dose: 18.75 mg/kg/injection, schedule: Q01DX009 (ip), vehicle: saline with Tween-80",136 % of control
same,T/C,"dose: 37.5 mg/kg/injection, schedule: Q01DX009 (ip), vehicle: saline with Tween-80",136 % of control
same,T/C,"dose: 49.5 mg/kg/injection, schedule: Q04DX003 (ip), vehicle: saline sonified",130 % of control
same,T/C,"dose: 75.0 mg/kg/injection, schedule: Q01DX009 (ip), vehicle: saline sonified",131 % of control
same,T/C,"dose: 75.0 mg/kg/injection, schedule: Q01DX009 (ip), vehicle: saline with Tween-80",136 % of control
same,T/C,"dose: 75.0 mg/kg/injection, schedule: Q04DX003 (ip), vehicle: saline sonified",130 and 140 % of control
same,T/C,"dose: 112.5 mg/kg/injection, schedule: Q04DX003 (ip), vehicle: saline sonified",140 % of control
same,T/C,"dose: 150.0 mg/kg/injection, schedule: Q01DX009 (ip), vehicle: saline sonified",140 % of control
same,survivor count,"dose: 150.0 mg/kg/injection, schedule: Q04DX003 (ip), vehicle: saline sonified",3 of 6
same,survivor count,"dose: 300.0 mg/kg/injection, schedule: Q01DX009 (ip), vehicle: saline sonified",3 of 6
same,T/C,"dose: 300.0 mg/kg/injection, schedule: Q04DX003 (ip), vehicle: saline sonified",145 % of control
